Data published in patent US5962635A, “Therapeutic compounds” (priority 1993, dated 1999).
Part of at least one peptide drawing is inferred or uncertain, most often the ends. Where no end group is shown, it is not given here.

Assay: Tryptophan UV fluorescence of Nef peptide and quenching by nitroxide spin probes
Format: physicochemical
Details: P/L 1/200; relative to control 1.00

Q: For GGKWSKSSVIGWPAVRER-NH2 [Nef peptide], which “Quenching of tryptophan emission, Buffer + TCC” value is on record?
A: 0.347
